{"source": "paper PMC7192597", "about": "“Mechanistic insights from structure of Mycobacterium smegmatis topoisomerase I with ssDNA bound to both N- and C-terminal domains”", "binders": {"B1": {"name": "Mycobacterium smegmatis topoisomerase I, 839-residue C-terminally truncated form (MsmTOP1-839t) (enzyme, UniProt A0R5D9 1-839)", "chain": "SNAMAGGDRGSGGTGNVRRLVIVESPTKARKIAGYLGSNYVVESSRGHIRDLPRNAADVPAKFKSEPWARLGVNVDQNFEPLYIVSPEKKSTVTELKGLLKDVDELYLATDGDREGEAIAWHLLETLKPRVPVKRMVFHEITEPAIRNAAENPRDLDIALVDAQETRRILDRLYGYEVSPVLWKKVAPKLSAGRVQSVATRIIVQRERERMAFHSASYWDVTAELDASVSDPSASPPKFTAKLNTVDGRRVATGRDFDSLGQLKRPDEVLVLDEASAGALASGLRGAQLAVTSVEQKPYTRRPYAPFMTSTLQQEAARKLRFSSERTMSIAQRLYENGYITYMRTDSTTLSESAINAARTQARQLYGEEYVHPSPRQYTRKVKNAQEAHEAIRPAGDVFQTPGQLHSALDTDEFRLYELIWQRTVASQMADARGTTLSLRIGGSASSGEQVVFNASGRTITFPGFLKAYVESIDELAGGESDDAESRLPNLTQGQRVDAADLSADGHQTSPPARYTEASLIKALEELGIGRPSTYSSIIKTIQDRGYVQKKGSALVPSWVAFAVVGLLEQHFGRLVDYDFTAAMEDELDEIANGQEQRTNWLNNFYFGGEHGVEGSIARAGGLKQLVGGNLEGIDAREVNSIKVFDDSEGRPVYVRVGRNGPYLERMVDDPDNPGEQKPQRANLKEDLTPDELTPELAEKLFATPQEGRSLGIDPETGHEIVAKDGRFGPYVTEVLPEPEDGGDDGTAGTPAKKGKKPTGPKPRTGSLFRSMDLETVTLEDALKLLSLPRVVGVDPTTNEEITAQNGRYGPYLKRGTDSRSLATEDQIFTITLDEALKIYAE"}}, "molecular_target": "Mycobacterium smegmatis topoisomerase I, 839-residue C-terminally truncated form (MsmTOP1-839t) (M. smegmatis strain mc2 155) (UniProt A0R5D9)", "assay": "SAXS; solution small-angle X-ray scattering in a flow cell; MsmTOP1-839t alone and in complex with ssDNA MTS2-25; 1.0, 2.0 and 5.0 mg/ml, extrapolated to zero concentration; both purified", "note": "No constants are given. Whether binding was seen depends on the method and setting. Where a sequence is shown, tags or fusion partners need not be part of it.", "data": [{"binder": "B1", "values": [{"measurement": "binding", "value": "no binding (tested: 1.0, 2.0 and 5.0 mg/ml)"}]}]}
